Reference: paper doi:10.1101/2021.10.07.463531
No constants are given. Whether binding was seen depends on the method and setting. Binding seen in cells or lysates may run through a third protein. Binding can be weak; no strength is given. Tags and fused reporters may be left off the sequences shown.

The chains behind the UniProt entries cited, without tags or fusion partners. Where a name states a change or a piece, a line headed by the entry shows the natural chain unless it says otherwise.
UniProt Q99MQ1: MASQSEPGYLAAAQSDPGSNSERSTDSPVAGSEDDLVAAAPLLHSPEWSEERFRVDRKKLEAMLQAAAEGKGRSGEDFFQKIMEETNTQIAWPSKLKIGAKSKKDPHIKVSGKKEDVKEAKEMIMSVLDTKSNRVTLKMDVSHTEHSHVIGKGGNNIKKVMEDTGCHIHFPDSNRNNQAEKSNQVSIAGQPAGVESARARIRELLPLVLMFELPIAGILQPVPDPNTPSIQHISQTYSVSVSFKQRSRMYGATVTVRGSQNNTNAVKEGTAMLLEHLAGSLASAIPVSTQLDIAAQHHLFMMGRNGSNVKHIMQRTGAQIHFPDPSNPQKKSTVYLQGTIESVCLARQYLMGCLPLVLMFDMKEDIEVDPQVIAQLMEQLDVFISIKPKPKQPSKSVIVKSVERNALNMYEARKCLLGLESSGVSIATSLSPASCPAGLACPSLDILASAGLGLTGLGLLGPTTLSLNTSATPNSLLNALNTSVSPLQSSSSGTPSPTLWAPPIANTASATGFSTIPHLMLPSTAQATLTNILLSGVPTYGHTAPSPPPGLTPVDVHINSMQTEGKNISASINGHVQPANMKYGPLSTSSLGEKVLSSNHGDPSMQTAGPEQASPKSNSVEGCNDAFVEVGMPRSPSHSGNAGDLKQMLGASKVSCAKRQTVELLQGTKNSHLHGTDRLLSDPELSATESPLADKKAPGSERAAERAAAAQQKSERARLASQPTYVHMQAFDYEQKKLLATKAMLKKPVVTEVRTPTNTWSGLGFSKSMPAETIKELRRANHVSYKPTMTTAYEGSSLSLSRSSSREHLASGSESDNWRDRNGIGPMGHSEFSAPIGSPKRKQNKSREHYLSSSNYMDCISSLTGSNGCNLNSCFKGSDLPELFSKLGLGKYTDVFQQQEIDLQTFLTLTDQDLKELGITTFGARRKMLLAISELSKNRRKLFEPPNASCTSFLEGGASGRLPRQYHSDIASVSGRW

Biological target: GST-Bicc1-KH (GST fusion of the entire KH tandem repeat of Bicc1) (UniProt Q99MQ1)
Assay: pull-down

B1: v5-ANKS6 (protein, UniProt Q68DC2 1-871)
chain: MGEGGLPPAFQLLLRACDQGDTETARRLLEPGAAEPAERGAEPEAGAEPAGAEVAGPGAAAAGAVGAPVPVDCSDEAGNTALQFAAAGGHEPLVRFLLRRGASVNSRNHYGWSALMQAARFGHVSVAHLLLDHGADVNAQNRLGASVLTVASRGGHLGVVKLLLEAGAFVDHHHPSGEQLGLGGSRDEPLDITALMAAIQHGHEAVVRLLMEWGADPNHAARTVGWSPLMLAALTGRLGVAQQLVEKGANPDHLSVLEKTAFEVALDCKHRDLVDYLDPLTTVRPKTDEEKRRPDIFHALKMGNFQLVKEIADEDPSHVNLVNGDGATPLMLAAVTGQLALVQLLVERHADVDKQDSVHGWTALMQATYHGNKEIVKYLLNQGADVTLRAKNGYTAFDLVMLLNDPDTELVRLLASVCMQVNKDKGRPSHQPPLPHSKVRQPWSIPVLPDDKGGLKSWWNRMSNRFRKLKLMQTLPRGLSSNQPLPFSDEPEPALDSTMRAAPQDKTSRSALPDAAPVTKDNGPGSTRGEKEDTLLTTMLRNGAPLTRLPSDKLKAVIPPFLPPSSFELWSSDRSRTRHNGKADPMKTALPQRASRGHPVGGGGTDTTPVRPVKFPSLPRSPASSANSGNFNHSPHSSGGSSGVGVSRHGGELLNRSGGSIDNVLSQIAAQRKKAAGLLEQKPSHRSSPVGPAPGSSPSELPASPAGGSAPVGKKLETSKRPPSGTSTTSKSTSPTLTPSPSPKGHTAESSVSSSSSHRQSKSSGGSSSGTITDEDELTGILKKLSLEKYQPIFEEQEVDMEAFLTLTDGDLKELGIKTDGSRQQILAAISELNAGKGRERQILQETIHNFHSSFESSASNTRAPGNSPCA
  binding: binds
